Test results: publication PMC9123286 (The Journal of Cell Biology, 2022)
Changes are numbered by the printed parent chain. Results are given in words; binding and its absence hold for the method and conditions named. Binding seen in cells or lysates may run through a third protein. Some results given as binding are weak or reduced against the parent protein; the word gives no strength. Tags and fused reporters may be left off the sequences shown.

Amino acid sequences for entries named in this document (tags omitted).
UniProt Q01590: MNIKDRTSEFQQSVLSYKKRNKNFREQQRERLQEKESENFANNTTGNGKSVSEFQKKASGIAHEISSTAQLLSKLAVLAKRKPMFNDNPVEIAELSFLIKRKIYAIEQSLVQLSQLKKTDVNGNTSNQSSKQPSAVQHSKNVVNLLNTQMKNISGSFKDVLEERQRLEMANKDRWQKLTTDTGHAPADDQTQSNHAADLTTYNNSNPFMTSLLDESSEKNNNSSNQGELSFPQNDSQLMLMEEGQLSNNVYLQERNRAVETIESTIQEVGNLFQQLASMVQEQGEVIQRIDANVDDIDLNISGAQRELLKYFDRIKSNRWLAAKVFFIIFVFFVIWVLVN

B1: N-terminally HA-tagged Erg1 (full length) (enzyme, S. cerevisiae, UniProt P32476 1-496, looked up)
chain: MSAVNVAPELINADNTITYDAIVIGAGVIGPCVATGLARKGKKVLIVERDWAMPDRIVGELMQPGGVRALRSLGMIQSINNIEAYPVTGYTVFFNGEQVDIPYPYKADIPKVEKLKDLVKDGNDKVLEDSTIHIKDYEDDERERGVAFVHGRFLNNLRNITAQEPNVTRVQGNCIEILKDEKNEVVGAKVDIDGRGKVEFKAHLTFICDGIFSRFRKELHPDHVPTVGSSFVGMSLFNAKNPAPMHGHVILGSDHMPILVYQISPEETRILCAYNSPKVPADIKSWMIKDVQPFIPKSLRPSFDEAVSQGKFRAMPNSYLPARQNDVTGMCVIGDALNMRHPLTGGGMTVGLHDVVLLIKKIGDLDFSDREKVLDELLDYHFERKSYDSVINVLSVALYSLFAADSDNLKALQKGCFKYFQRGGDCVNKPVEFLSGVLPKPLQLTRVFFAVAFYTIYLNMEERGFLGLPMALLEGIMILITAIRVFTPFLFGELIG
notes: Erg1, squalene monooxygenase, S. cerevisiae; also called HA–Erg1; source: yeast, expressed from the endogenous ERG1 promoter (genomic) or ectopically in Δget3 cells, in lysate; not shown: HA, N-terminal, kept

Columns and labels:
Get3 D57E-TEV-GFP [1] = molecular target: T1, Get3 D57E-TEV-GFP (S. cerevisiae, UniProt Q12154 1-354, D57E); test: co-IP; lysates from cells expressing HA–Erg1 (endogenous promoter) and Get3 DE–TEV–GFP or Get3 DE FIDD–TEV–GFP; anti-GFP MicroBeads, no detergent, TEV elution; immunoblot, signal normalised to Get3 in the eluate and to the input
T1 construct: Get3, cytosolic ATPase of the GET pathway, S. cerevisiae; ATPase-impaired client trap variant D57E; Captured on anti-GFP beads and eluted by TEV cleavage; the oligomeric state in the lysate was not measured; also called Get3 DE; Get3 D57E (DE); source: yeast (BY4741 background), ectopically expressed, in lysate made without detergent; not shown: TEV site-GFP, C-terminal, kept
T1 sequence (looked up): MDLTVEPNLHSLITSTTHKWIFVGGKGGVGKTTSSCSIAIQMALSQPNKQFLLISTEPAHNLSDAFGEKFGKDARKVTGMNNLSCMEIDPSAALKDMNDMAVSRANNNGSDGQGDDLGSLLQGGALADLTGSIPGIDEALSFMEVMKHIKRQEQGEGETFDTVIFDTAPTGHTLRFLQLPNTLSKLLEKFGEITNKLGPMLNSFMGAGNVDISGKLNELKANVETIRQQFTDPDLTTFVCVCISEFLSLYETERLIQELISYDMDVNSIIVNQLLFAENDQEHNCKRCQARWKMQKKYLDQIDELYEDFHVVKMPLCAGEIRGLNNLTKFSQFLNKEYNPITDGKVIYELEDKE

[2] = molecular target: T2, Get3 D57E F190D I193D-TEV-GFP (S. cerevisiae) (UniProt Q12154); test: as above
T2 sequence: T1 sequence (looked up) with F190D, I193D

Get3 D57E-TEV-GFP [3] = molecular target: T1, Get3 D57E-TEV-GFP; test: co-IP; lysates from Δget3 cells ectopically expressing Get3 DE-TEV-GFP and HA-tagged Erg1 full length, ΔC, Δα1 or Δα2; anti-GFP MicroBeads, no detergent, TEV elution; immunoblot, signal normalised to Get3 in the eluate and to the input

Molecule	binding (Get3 D57E-TEV-GFP [1])	binding [2]	binding (Get3 D57E-TEV-GFP [3])
Sed5 (from UniProt Q01590 1-340)	binds	binds	–
B1	–	binds	binds
